The other results are listed elsewhere or left out.
Molecular target: T1, OsSMF1 (Oryza sativa, UniProt Q6ZLB0 1-436)
T1 sequence: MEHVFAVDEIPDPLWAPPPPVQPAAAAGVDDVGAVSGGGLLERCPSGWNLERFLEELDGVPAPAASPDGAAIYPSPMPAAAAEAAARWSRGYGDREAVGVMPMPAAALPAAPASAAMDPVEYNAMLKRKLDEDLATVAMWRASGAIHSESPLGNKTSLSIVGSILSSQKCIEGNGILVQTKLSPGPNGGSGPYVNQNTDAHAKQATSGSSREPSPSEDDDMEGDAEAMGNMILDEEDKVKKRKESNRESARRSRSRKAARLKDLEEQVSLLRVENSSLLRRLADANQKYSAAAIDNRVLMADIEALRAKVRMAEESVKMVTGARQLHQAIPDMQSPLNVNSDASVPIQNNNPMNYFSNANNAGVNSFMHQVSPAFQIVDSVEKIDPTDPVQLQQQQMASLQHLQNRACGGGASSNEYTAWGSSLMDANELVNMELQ
Test: protein-binding microarray (RPBM); PBS, 2% BSA, 51.3 ng/ul salmon testes DNA, 50 uM zinc acetate, 200 nM TF, 25 C, 1 h; high values mean tight binding
Details: protein: recombinant; tags: N-terminal polyhistidine and DsRed monomer fusion (pET32a); chain copies: 2; label: CyDye5-dUTP incorporated in the synthesized complementary strand; 3' TTTTT single-stranded linker to array surface; dsDNA, one strand shown
Method in brief: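 Using Ni–NTA, transcription factors fused N-terminally to polyhistidine and DsRed were purified after expression in E. coli BL21-CodonPlus. These were incubated at 200 nM with a blocked, double-stranded custom Agilent array for 1 h at 25 °C in a buffer containing 50 µM zinc acetate, and the array was washed. The binding signal is per-feature fluorescence intensity (arbitrary units) on an Axon 4000B scanner.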

Sequence | binding signal
TGTGATTTGGTACATGCATGTTCTACTAAGTCTGTTTCTACGGAGTCACCTAGTGCAG | 3520 fluorescence intensity (a.u.)
CTCTGATCGTTTGAGCTTGGGCTATGTGGAAACATGAACACGGAGTCACCTAGTGCAG | 3860 fluorescence intensity (a.u.)
CGCGAGCAGGTTGACTTGCAGCAGGGCGTGGACTGATCAACGGAGTCACCTAGTGCAG | 32700 fluorescence intensity (a.u.)
GGCCTGCTGCTGCTTTGGGTGGGCTGCCTCGTCACTAATCCGGAGTCACCTAGTGCAG | 8340 fluorescence intensity (a.u.)
ACCCACCCACCTGGCACCAATCTCGATGCAAATCCAACGGCGGAGTCACCTAGTGCAG | 3460 fluorescence intensity (a.u.)
GCTACCGTTTGATCTGAATCGGATGGCACAGGTTAGTCAGCGGAGTCACCTAGTGCAG | 3240 fluorescence intensity (a.u.)
AAACCAAAACCAAACCGAAGCTTCCCCATCTCGCGTGAACCGGAGTCACCTAGTGCAG | 40800 fluorescence intensity (a.u.)
TTCGGTTTTCCCTGGCTGACGAGTGACAAAACTGCAGTTGCGGAGTCACCTAGTGCAG | 3770 fluorescence intensity (a.u.)
TTAGTCCTTCATCTTCACTTGTGACATGGCTTGCTTGCAGCGGAGTCACCTAGTGCAG | 3680 fluorescence intensity (a.u.)
ATGGCCGATAAGCCGTCCACGCGTCCACGGCAATCTCGCGCGGAGTCACCTAGTGCAG | 4160 fluorescence intensity (a.u.)
CCCCACTAGTCCAGCTTTTGTATGACTCGTCTATGTCAGTCGGAGTCACCTAGTGCAG | 5270 fluorescence intensity (a.u.)
CGGCCGTCCTCGGAGAACGGGAGGAAGTCGCGTCACGGTGCGGAGTCACCTAGTGCAG | 4670 fluorescence intensity (a.u.)
ATCACAGGAGACTGCAACGTCATCTAAAACTCCTCGTTGGCGGAGTCACCTAGTGCAG | 6700 fluorescence intensity (a.u.)
GAGAACACTGACATGTGGGCCCCACAATTTCGCCGCATATCGGAGTCACCTAGTGCAG | 3700 fluorescence intensity (a.u.)
TCTCTAATTTATTAGAGCACCACGTGTCGGCTTGAGAGCGCGGAGTCACCTAGTGCAG | 9150 fluorescence intensity (a.u.)
TTGTAGGCCACAGGTAGTAGTATGACTGTATGAGTTGCAGCGGAGTCACCTAGTGCAG | 5250 fluorescence intensity (a.u.)
AAATGTGATGATCGTTAGTGGATGATGATGTGGCATCTGGCGGAGTCACCTAGTGCAG | 13400 fluorescence intensity (a.u.)
GTAGGGCACGATGATATGTCCGGGTGTCACCTTGATTTTCCGGAGTCACCTAGTGCAG | 3720 fluorescence intensity (a.u.)
TAGAAAGTGCCCAATTAGTATAGGTATAGATAGATAGACTCGGAGTCACCTAGTGCAG | 51000 fluorescence intensity (a.u.)
ATTGAAAATTCTCTACTCTTTACACGTGTCCATCATCCCACGGAGTCACCTAGTGCAG | 19100 fluorescence intensity (a.u.)
TGCCGATGCCCGCCTGCATGTACTATACGAACCAAAACGCCGGAGTCACCTAGTGCAG | 4590 fluorescence intensity (a.u.)
CTCCCATTCTTGAACAAGTAGAATTACCTCTTGCACAGCGCGGAGTCACCTAGTGCAG | 3910 fluorescence intensity (a.u.)
CGGATTTCGCCCGCCTCCGCCCTCGGTGTTGGAGTTTGGTCGGAGTCACCTAGTGCAG | 23800 fluorescence intensity (a.u.)

6 neighbouring records already listed, for reference:
Sequence | binding signal
CCCCACTAGTCCAGCTTTTGTATGACTCGTCTATGTCAGTCGGAGTCACCTAGTGCAG | 5270 fluorescence intensity (a.u.)
CGGCCGTCCTCGGAGAACGGGAGGAAGTCGCGTCACGGTGCGGAGTCACCTAGTGCAG | 4670 fluorescence intensity (a.u.)
ATCACAGGAGACTGCAACGTCATCTAAAACTCCTCGTTGGCGGAGTCACCTAGTGCAG | 6700 fluorescence intensity (a.u.)
GAGAACACTGACATGTGGGCCCCACAATTTCGCCGCATATCGGAGTCACCTAGTGCAG | 3700 fluorescence intensity (a.u.)
TCTCTAATTTATTAGAGCACCACGTGTCGGCTTGAGAGCGCGGAGTCACCTAGTGCAG | 9150 fluorescence intensity (a.u.)
TTGTAGGCCACAGGTAGTAGTATGACTGTATGAGTTGCAGCGGAGTCACCTAGTGCAG | 5250 fluorescence intensity (a.u.)

Source: article PMC7819943, “Rice protein-binding microarrays: a tool to detect cis-acting elements near promoter regions in rice”
